This data set relates to BAF complex subunits and histone proteins. The data set is described as follows: Mass spectrometry proteomics of purified HA-SS18 WT and HA-SS18-SSX1 complexes (Tables 5A-5E). Set-up: species or system human.
Setting [1] is: HA-SS18SSX1 purification, NE (soluble nuclear extract) fraction, HEK-293T, peptides per identified protein.
Where [2] appears, read: HA-SS18WT_NE_peptides: HA-SS18 WT complexes purified from nuclear extract (NE), HEK-293T, label = protein identified (Gene Symbol).
Where [3] appears, read: HA-SS18SSX1_NE_peptides: protein co-purified with HA-SS18-SSX1 BAF complexes from soluble nuclear extract (NE), HEK-293T cells.
Setting [4] is: HA-SS18WT_CHR_peptides: protein identified in HA-SS18 WT BAF complex purification from nuclease-treated solubilized chromatin (CHR), HEK-293T.
The mark [5] stands for this setting: HA-SS18WT_NE_peptides: proteins co-purified with HA-SS18 WT from nuclear extract (NE), HEK-293T.

B1: CPSF1 (protein, UniProt Q10570 1-1443, looked up)
Cleavage and polyadenylation …: MYAVYKQAHPPTGLEFSMYCNFFNNSERNLVVAGTSQLYVYRLNRDAEALTKNDRSTEGKAHREKLELAASFSFFGNVMSMASVQLAGAKRDALLLSFKDAKLSVVEYDPGTHDLKTLSLHYFEEPELRDGFVQNVHTPRVRVDPDGRCAAMLVYGTRLVVLPFRRESLAEEHEGLVGEGQRSSFLPSYIIDVRALDEKLLNIIDLQFLHGYYEPTLLILFEPNQTWPGRVAVRQDTCSIVAISLNITQKVHPVIWSLTSLPFDCTQALAVPKPIGGVVVFAVNSLLYLNQSVPPYGVALNSLTTGTTAFPLRTQEGVRITLDCAQATFISYDKMVISLKGGEIYVLTLITDGMRSVRAFHFDKAAASVLTTSMVTMEPGYLFLGSRLGNSLLLKYTEKLQEPPASAVREAADKEEPPSKKKRVDATAGWSAAGKSVPQDEVDEIEVYGSEAQSGTQLATYSFEVCDSILNIGPCANAAVGEPAFLSEEFQNSPEPDLEIVVCSGHGKNGALSVLQKSIRPQVVTTFELPGCYDMWTVIAPVRKEEEDNPKGEGTEQEPSTTPEADDDGRRHGFLILSREDSTMILQTGQEIMELDTSGFATQGPTVFAGNIGDNRYIVQVSPLGIRLLEGVNQLHFIPVDLGAPIVQCAVADPYVVIMSAEGHVTMFLLKSDSYGGRHHRLALHKPPLHHQSKVITLCLYRDLSGMFTTESRLGGARDELGGRSGPEAEGLGSETSPTVDDEEEMLYGDSGSLFSPSKEEARRSSQPPADRDPAPFRAEPTHWCLLVRENGTMEIYQLPDWRLVFLVKNFPVGQRVLVDSSFGQPTTQGEARREEATRQGELPLVKEVLLVALGSRQSRPYLLVHVDQELLIYEAFPHDSQLGQGNLKVRFKKVPHNINFREKKPKPSKKKAEGGGAEEGAGARGRVARFRYFEDIYGYSGVFICGPSPHWLLVTGRGALRLHPMAIDGPVDSFAPFHNVNCPRGFLYFNRQGELRISVLPAYLSYDAPWPVRKIPLRCTAHYVAYHVESKVYAVATSTNTPCARIPRMTGEEKEFETIERDERYIHPQQEAFSIQLISPVSWEAIPNARIELQEWEHVTCMKTVSLRSEETVSGLKGYVAAGTCLMQGEEVTCRGRILIMDVIEVVPEPGQPLTKNKFKVLYEKEQKGPVTALCHCNGHLVSAIGQKIFLWSLRASELTGMAFIDTQLYIHQMISVKNFILAADVMKSISLLRYQEESKTLSLVSRDAKPLEVYSVDFMVDNAQLGFLVSDRDRNLMVYMYLPEAKESFGGMRLLRRADFHVGAHVNTFWRTPCRGATEGLSKKSVVWENKHITWFATLDGGIGLLLPMQEKTYRRLLMLQNALTTMLPHHAGLNPRAFRMLHVDRRTLQNAVRNVLDGELLNRYLYLSTMERSELAKKIGTTPDIILDDLLETDRVTAHF
Take B1: under setting [1], the “Total (total peptides)” value is on record as 18 and the “Unique (unique peptides)” value was determined as 16. Moreover, under setting [2], the “Total (peptides)” value came to 17 and the “Unique (peptides)” value was determined as 17.

B2: RRP8 (protein, UniProt O43159 1-456, looked up)
Ribosomal RNA-processing …: MFEEPEWAEAAPVAAGLGPVISRPPPAASSQNKGSKRRQLLATLRALEAASLSQHPPSLCISDSEEEEEERKKKCPKKASFASASAEVGKKGKKKCQKQGPPCSDSEEEVERKKKCHKQALVGSDSAEDEKRKRKCQKHAPINSAQHLDNVDQTGPKAWKGSTTNDPPKQSPGSTSPKPPHTLSRKQWRNRQKNKRRCKNKFQPPQVPDQAPAEAPTEKTEVSPVPRTDSHEARAGALRARMAQRLDGARFRYLNEQLYSGPSSAAQRLFQEDPEAFLLYHRGFQSQVKKWPLQPVDRIARDLRQRPASLVVADFGCGDCRLASSIRNPVHCFDLASLDPRVTVCDMAQVPLEDESVDVAVFCLSLMGTNIRDFLEEANRVLKPGGLLKVAEVSSRFEDVRTFLRAVTKLGFKIVSKDLTNSHFFLFDFQKTGPPLVGPKAQLSGLQLQPCLYKRR
For the molecule B2, under setting [3], the “Total (peptides)” value is reported as 1 and the “Unique (peptides)” value is recorded as 1. For the same molecule, under setting [4], the “Total (total peptides)” value came to 1 and the “Unique (unique peptides)” value is on record as 1. Further, under setting [5], the “Total (peptides)” value came to 1 and the “Unique (peptides)” value is 1.

B3: TADA3 (protein, UniProt O75528 1-432, looked up)
Transcriptional adapter 3: MSELKDCPLQFHDFKSVDHLKVCPRYTAVLARSEDDGIGIEELDTLQLELETLLSSASRRLRVLEAETQILTDWQDKKGDRRFLKLGRDHELGAPPKHGKPKKQKLEGKAGHGPGPGPGRPKSKNLQPKIQEYEFTDDPIDVPRIPKNDAPNRFWASVEPYCADITSEEVRTLEELLKPPEDEAEHYKIPPLGKHYSQRWAQEDLLEEQKDGARAAAVADKKKGLMGPLTELDTKDVDALLKKSEAQHEQPEDGCPFGALTQRLLQALVEENIISPMEDSPIPDMSGKESGADGASTSPRNQNKPFSVPHTKSLESRIKEELIAQGLLESEDRPAEDSEDEVLAELRKRQAELKALSAHNRTKKHDLLRLAKEEVSRQELRQRVRMADNEVMDAFRKIMAARQKKRTPTKKEKDQAWKTLKERESILKLLDG
Turning to B3, the “Total (peptides)” value runs as follows: under setting [3], 1; under setting [5], 1. Also, the “Unique (peptides)” value reads like this: under setting [3], 1; under setting [5], 1.

B4: CLN6 (protein, UniProt Q9NWW5 1-311, looked up)
Ceroid-lipofuscinosis …: MEATRRRQHLGATGGPGAQLGASFLQARHGSVSADEAARTAPFHLDLWFYFTLQNWVLDFGRPIAMLVFPLEWFPLNKPSVGDYFHMAYNVITPFLLLKLIERSPRTLPRSITYVSIIIFIMGASIHLVGDSVNHRLLFSGYQHHLSVRENPIIKNLKPETLIDSFELLYYYDEYLGHCMWYIPFFLILFMYFSGCFTASKAESLIPGPALLLVAPSGLYYWYLVTEGQIFILFIFTFFAMLALVLHQKRKRLFLDSNGLFLFSSFALTLLLVALWVAWLWNDPVLRKKYPGVIYVPEPWAFYTLHVSSRH
As for B4, under setting [3], the “Total (peptides)” value came to 1 and the “Unique (peptides)” value worked out at 1.

B5: FARP2 (protein, UniProt O94887 1-1054, looked up)
FERM, ARHGEF and pleckstrin …: MGEIEGTYRVLQTAGMRLGAQTPVGVSTLEPGQTLLPRMQEKHLHLRVKLLDNTMEIFDIEPKCDGQVLLTQVWKRLNLVECDYFGMEFQNTQSYWIWLEPMKPIIRQIRRPKNVVLRLAVKFFPPDPGQLQEEYTRYLFALQLKRDLLEERLTCADTTAALLTSHLLQSEIGDYDETLDREHLKVNEYLPGQQHCLEKILEFHQKHVGQTPAESDFQVLEIARKLEMYGIRFHMASDREGTKIQLAVSHMGVLVFQGTTKINTFNWSKVRKLSFKRKRFLIKLHPEVHGPYQDTLEFLLGSRDECKNFWKICVEYHTFFRLLDQPKPKAKAVFFSRGSSFRYSGRTQKQLVDYFKDSGMKRIPYERRHSKTHTSVRALTADLPKQSISFPEGLRTPASPSSANAFYSLSPSTLVPSGLPEFKDSSSSLTDPQVSYVKSPAAERRSGAVAGGPDTPSAQPLGPPALQPGPGLSTKSPQPSPSSRKSPLSLSPAFQVPLGPAEQGSSPLLSPVLSDAGGAGMDCEEPRHKRVPADEAYFIVKEILATERTYLKDLEVITVWFRSAVVKEDAMPATLMTLLFSNIDPIYEFHRGFLREVEQRLALWEGPSKAHTKGSHQRIGDILLRNMRQLKEFTSYFQRHDEVLTELEKATKRCKKLEAVYKEFELQKVCYLPLNTFLLKPIQRLLHYRLLLRRLCGHYSPGHHDYADCHDALKAITEVTTTLQHILIRLENLQKLTELQRDLVGIENLIAPGREFIREGCLHKLTKKGLQQRMFFLFSDMLLYTSKGVAGTSHFRIRGLLPLQGMLVEESDNEWSVPHCFTIYAAQKTIVVAASTRLEKEKWMLDLNSAIQAAKSGGDTAPALPGRTVCTRPPRSPNEVSLEQESEDDARGVRSSLEGHGQHRANTTMHVCWYRNTSVSRADHSAAVENQLSGYLLRKFKNSHGWQKLWVVFTNFCLFFYKTHQDDYPLASLPLLGYSVSIPREADGIHKDYVFKLQFKSHVYFFRAESKYTFERWMEVIQGASSSAGRAPSIVQDGPQPSSGLEGMVRGKEE
For B5, under setting [3], the “Total (peptides)” value was 1 and the “Unique (peptides)” value amounted to 1.

B6: VMP1 (protein, UniProt Q96GC9 2-406, looked up)
Vacuole membrane protein 1: AENGKNCDQRRVAMNKEHHNGNFTDPSSVNEKKRREREERQNIVLWRQPLITLQYFSLEILVILKEWTSKLWHRQSIVVSFLLLLAVLIATYYVEGVHQQYVQRIEKQFLLYAYWIGLGILSSVGLGTGLHTFLLYLGPHIASVTLAAYECNSVNFPEPPYPDQIICPDEEGTEGTISLWSIISKVRIEACMWGIGTAIGELPPYFMARAARLSGAEPDDEEYQEFEEMLEHAESAQDFASRAKLAVQKLVQKVGFFGILACASIPNPLFDLAGITCGHFLVPFWTFFGATLIGKAIIKMHIQKIFVIITFSKHIVEQMVAFIGAVPGIGPSLQKPFQEYLEAQRQKLHHKSEMGTPQGENWLSWMFEKLVVVMVCYFILSIINSMAQSYAKRIQQRLNSEEKTK
For B6, the “Total (peptides)” value is, setting by setting: under setting [3], 1; under setting [5], 2. In addition, the “Unique (peptides)” value was 1 under setting [3] and 2 under setting [5].

B7: SGPL1 (protein, UniProt O95470 1-568, looked up)
Sphingosine-1-phosphate lyase …: MPSTDLLMLKAFEPYLEILEVYSTKAKNYVNGHCTKYEPWQLIAWSVVWTLLIVWGYEFVFQPESLWSRFKKKCFKLTRKMPIIGRKIQDKLNKTKDDISKNMSFLKVDKEYVKALPSQGLSSSAVLEKLKEYSSMDAFWQEGRASGTVYSGEEKLTELLVKAYGDFAWSNPLHPDIFPGLRKIEAEIVRIACSLFNGGPDSCGCVTSGGTESILMACKAYRDLAFEKGIKTPEIVAPQSAHAAFNKAASYFGMKIVRVPLTKMMEVDVRAMRRAISRNTAMLVCSTPQFPHGVIDPVPEVAKLAVKYKIPLHVDACLGGFLIVFMEKAGYPLEHPFDFRVKGVTSISADTHKYGYAPKGSSLVLYSDKKYRNYQFFVDTDWQGGIYASPTIAGSRPGGISAACWAALMHFGENGYVEATKQIIKTARFLKSELENIKGIFVFGNPQLSVIALGSRDFDIYRLSNLMTAKGWNLNQLQFPPSIHFCITLLHARKRVAIQFLKDIRESVTQIMKNPKAKTTGMGAIYGMAQTTVDRNMVAELSSVFLDSLYSTDTVTQGSQMNGSPKPH
B7: under setting [3], the “Total (peptides)” value amounted to 1 and the “Unique (peptides)” value is on record as 1. Moreover, under setting [2], the “Total (peptides)” value worked out at 2 and the “Unique (peptides)” value is 2.

B8: MICU1 (protein, UniProt Q9BPX6 34-476, looked up)
Calcium uptake protein 1, …: MMVAFLGASAVTASTGLLWKRAHAESPPCVDNLKSDIGDKGKNKDEGDVCNHEKKTADLAPHPEEKKKKRSGFRDRKVMEYENRIRAYSTPDKIFRYFATLKVISEPGEAEVFMTPEDFVRSITPNEKQPEHLGLDQYIIKRFDGKKISQEREKFADEGSIFYTLGECGLISFSDYIFLTTVLSTPQRNFEIAFKMFDLNGDGEVDMEEFEQVQSIIRSQTSMGMRHRDRPTTGNTLKSGLCSALTTYFFGADLKGKLTIKNFLEFQRKLQHDVLKLEFERHDPVDGRITERQFGGMLLAYSGVQSKKLTAMQRQLKKHFKEGKGLTFQEVENFFTFLKNINDVDTALSFYHMAGASLDKVTMQQVARTVAKVELSDHVCDVVFALFDCDGNGELSNKEFVSIMKQRLMRGLEKPKDMGFTRLMQAMWKCAQETAWDFALPKQ
On to B8, for which, under setting [3], the “Total (peptides)” value was determined as 1 and the “Unique (peptides)” value is on record as 1.

(Values after US20250283871A1, “COMPOSITIONS AND METHODS FOR MODULATING THE INTERACTION BETWEEN SS18-SSX FUSION ONCOPROTEIN AND NUCLEOSOMES” (Dana-Farber Cancer Institute, Inc., priority 2020, published 2025).)
